{"source": "PubChem BioAssay AID602196 (INSERM, 2012)", "test": "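Knock-downs that protect lung cancer cells from cisplatin or sensitise them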", "system": "human A549 lung cancer cells", "reagents": "siRNA pair against human genes", "timing": "48 h transfection before cisplatin; time from cisplatin to read-out not stated", "treatment": "cisplatin at a dose killing half of control-siRNA cells; exact dose and duration not given", "read-out": "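Shift in cisplatin death relative to control siRNA, from -50 (all cells die) to +50 (no cells die); siRNAs harmful on their own scored 0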", "direction": "two-siRNA summed score (-2 to +2): higher = both siRNAs protect from cisplatin killing; -2 means both sensitise; mean protection from cisplatin (shift in death): higher = protection from cisplatin killing", "call rule": "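Each siRNA scores 0 if harmful alone by LDH or WST-1, otherwise +1 if it reduces and -1 if it increases cisplatin killing; a gene is active when both siRNAs agree (sum +2 or -2)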", "meaning of the calls": "active = both siRNAs shift cisplatin killing the same way; inactive = no consistent shift, or siRNA harmful alone", "note": "The whole screen tested about 23,000 reagents; below is an unselected part. In the full data, 455 (2%) were called active. 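Active includes both protection and sensitisation; some change values fall well beyond the stated -50 to +50 range.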 Further read-outs or replicates are left out here. Not given: the amount of reagent."}
The first 4 entries, ahead of the listing:
{"gene knocked down": "TOR1AIP1 (GeneID 26092)", "two-siRNA summed score (-2 to +2)": 0, "mean protection from cisplatin (shift in death) (%)": 5.4, "Call": "inactive"}
{"gene knocked down": "OR1C1 (GeneID 26188)", "two-siRNA summed score (-2 to +2)": 0, "mean protection from cisplatin (shift in death) (%)": -4.1, "Call": "inactive"}
{"gene knocked down": "LOC441464", "two-siRNA summed score (-2 to +2)": 0, "mean protection from cisplatin (shift in death) (%)": 13.1, "Call": "inactive"}
{"gene knocked down": "KCNH4 (GeneID 23415)", "two-siRNA summed score (-2 to +2)": 0, "mean protection from cisplatin (shift in death) (%)": -4.8, "Call": "inactive"}

Main list, from the start:
{"gene knocked down": "TOR1AIP1 (GeneID 26092)", "two-siRNA summed score (-2 to +2)": 0, "mean protection from cisplatin (shift in death) (%)": 5.4, "Call": "inactive"}
{"gene knocked down": "OR1C1 (GeneID 26188)", "two-siRNA summed score (-2 to +2)": 0, "mean protection from cisplatin (shift in death) (%)": -4.1, "Call": "inactive"}
{"gene knocked down": "LOC441464", "two-siRNA summed score (-2 to +2)": 0, "mean protection from cisplatin (shift in death) (%)": 13.1, "Call": "inactive"}
{"gene knocked down": "KCNH4 (GeneID 23415)", "two-siRNA summed score (-2 to +2)": 0, "mean protection from cisplatin (shift in death) (%)": -4.8, "Call": "inactive"}
{"gene knocked down": "FAM9B (GeneID 171483)", "two-siRNA summed score (-2 to +2)": 0, "mean protection from cisplatin (shift in death) (%)": 0.5, "Call": "inactive"}
{"gene knocked down": "NDNF (GeneID 79625)", "two-siRNA summed score (-2 to +2)": 0, "mean protection from cisplatin (shift in death) (%)": -6.2, "Call": "inactive"}
{"gene knocked down": "THRSP (GeneID 7069)", "two-siRNA summed score (-2 to +2)": 0, "mean protection from cisplatin (shift in death) (%)": -3.5, "Call": "inactive"}
{"gene knocked down": "LOC388383", "two-siRNA summed score (-2 to +2)": 0, "mean protection from cisplatin (shift in death) (%)": 7.1, "Call": "inactive"}
{"gene knocked down": "ZNF804B (GeneID 219578)", "two-siRNA summed score (-2 to +2)": 0, "mean protection from cisplatin (shift in death) (%)": 1.6, "Call": "inactive"}
{"gene knocked down": "NLGN2 (GeneID 57555)", "two-siRNA summed score (-2 to +2)": 0, "mean protection from cisplatin (shift in death) (%)": -0.2, "Call": "inactive"}
{"gene knocked down": "KLK9 (GeneID 284366)", "two-siRNA summed score (-2 to +2)": 0, "mean protection from cisplatin (shift in death) (%)": -10.2, "Call": "inactive"}
{"gene knocked down": "MFF (GeneID 56947)", "two-siRNA summed score (-2 to +2)": 0, "mean protection from cisplatin (shift in death) (%)": 11.1, "Call": "inactive"}
{"gene knocked down": "ITPA (GeneID 3704)", "two-siRNA summed score (-2 to +2)": 1, "mean protection from cisplatin (shift in death) (%)": 10.6, "Call": "inactive"}
{"gene knocked down": "HLTF (GeneID 6596)", "two-siRNA summed score (-2 to +2)": 0, "mean protection from cisplatin (shift in death) (%)": 3.7, "Call": "inactive"}
{"gene knocked down": "SLITRK3 (GeneID 22865)", "two-siRNA summed score (-2 to +2)": 0, "mean protection from cisplatin (shift in death) (%)": -3, "Call": "inactive"}
{"gene knocked down": "MRPL58 (GeneID 3396)", "two-siRNA summed score (-2 to +2)": 0, "mean protection from cisplatin (shift in death) (%)": 5.4, "Call": "inactive"}
{"gene knocked down": "PARPBP (GeneID 55010)", "two-siRNA summed score (-2 to +2)": -1, "mean protection from cisplatin (shift in death) (%)": -7.9, "Call": "inactive"}
{"gene knocked down": "KCNK16 (GeneID 83795)", "two-siRNA summed score (-2 to +2)": 1, "mean protection from cisplatin (shift in death) (%)": 48.6, "Call": "inactive"}
{"gene knocked down": "LOC153910 (GeneID 153910)", "two-siRNA summed score (-2 to +2)": 0, "mean protection from cisplatin (shift in death) (%)": 7.9, "Call": "inactive"}
{"gene knocked down": "CFL1P6 (GeneID 390996)", "two-siRNA summed score (-2 to +2)": 1, "mean protection from cisplatin (shift in death) (%)": 8.2, "Call": "inactive"}
{"gene knocked down": "GJB1 (GeneID 2705)", "two-siRNA summed score (-2 to +2)": 0, "mean protection from cisplatin (shift in death) (%)": -7.1, "Call": "inactive"}
{"gene knocked down": "HPRT1 (GeneID 3251)", "two-siRNA summed score (-2 to +2)": 0, "mean protection from cisplatin (shift in death) (%)": 6.1, "Call": "inactive"}
{"gene knocked down": "VAC14 (GeneID 55697)", "two-siRNA summed score (-2 to +2)": 1, "mean protection from cisplatin (shift in death) (%)": 12.4, "Call": "inactive"}
{"gene knocked down": "NSMF (GeneID 26012)", "two-siRNA summed score (-2 to +2)": 0, "mean protection from cisplatin (shift in death) (%)": -17.4, "Call": "inactive"}
{"gene knocked down": "GABRG1 (GeneID 2565)", "two-siRNA summed score (-2 to +2)": 0, "mean protection from cisplatin (shift in death) (%)": -4.6, "Call": "inactive"}
{"gene knocked down": "JADE3 (GeneID 9767)", "two-siRNA summed score (-2 to +2)": 0, "mean protection from cisplatin (shift in death) (%)": 9.6, "Call": "inactive"}
{"gene knocked down": "LOC342933", "two-siRNA summed score (-2 to +2)": -1, "mean protection from cisplatin (shift in death) (%)": -6.8, "Call": "inactive"}
{"gene knocked down": "LOC387771", "two-siRNA summed score (-2 to +2)": 1, "mean protection from cisplatin (shift in death) (%)": 12.1, "Call": "inactive"}
{"gene knocked down": "THAP4 (GeneID 51078)", "two-siRNA summed score (-2 to +2)": 0, "mean protection from cisplatin (shift in death) (%)": -4.8, "Call": "inactive"}
{"gene knocked down": "PRELID3B (GeneID 51012)", "two-siRNA summed score (-2 to +2)": 0, "mean protection from cisplatin (shift in death) (%)": 6.6, "Call": "inactive"}
{"gene knocked down": "COL4A4 (GeneID 1286)", "two-siRNA summed score (-2 to +2)": -1, "mean protection from cisplatin (shift in death) (%)": -7.5, "Call": "inactive"}
{"gene knocked down": "NFATC2 (GeneID 4773)", "two-siRNA summed score (-2 to +2)": 0, "mean protection from cisplatin (shift in death) (%)": 5.8, "Call": "inactive"}
{"gene knocked down": "ORMDL2 (GeneID 29095)", "two-siRNA summed score (-2 to +2)": 0, "mean protection from cisplatin (shift in death) (%)": 7.5, "Call": "inactive"}
{"gene knocked down": "GPR139 (GeneID 124274)", "two-siRNA summed score (-2 to +2)": 1, "mean protection from cisplatin (shift in death) (%)": 10, "Call": "inactive"}
{"gene knocked down": "MRPS11 (GeneID 64963)", "two-siRNA summed score (-2 to +2)": -1, "mean protection from cisplatin (shift in death) (%)": -7.3, "Call": "inactive"}
{"gene knocked down": "CDH5 (GeneID 1003)", "two-siRNA summed score (-2 to +2)": 0, "mean protection from cisplatin (shift in death) (%)": -2.9, "Call": "inactive"}
{"gene knocked down": "STK4 (GeneID 6789)", "two-siRNA summed score (-2 to +2)": 0, "mean protection from cisplatin (shift in death) (%)": -0.9, "Call": "inactive"}
{"gene knocked down": "PGM2 (GeneID 55276)", "two-siRNA summed score (-2 to +2)": 1, "mean protection from cisplatin (shift in death) (%)": 10.4, "Call": "inactive"}
{"gene knocked down": "IWS1 (GeneID 55677)", "two-siRNA summed score (-2 to +2)": 0, "mean protection from cisplatin (shift in death) (%)": -3.5, "Call": "inactive"}
{"gene knocked down": "PSG6 (GeneID 5675)", "two-siRNA summed score (-2 to +2)": 0, "mean protection from cisplatin (shift in death) (%)": 10.5, "Call": "inactive"}
